# Test results as given in patent US20160304957A1, “TREATMENT AND MODULATION OF GENE EXPRESSION AND SKIN AGING” (DSM NUTRITIONAL PRODUCTS LTD., priority 2006, published 2016).
# Test system: HaCaT human keratinocytes
# Assay: Affymetrix GeneChip microarray, transcriptional response to β-carotene and/or UVA
# Assay type: cell-based
# Description: The cell culture experiments were carried out as described. Briefly, a subclone of passage 65 HaCaT keratinocytes, selected for differentiation capacity, was used at passages 16 to 23 after subcloning. 2×10^5 cells were seeded per 60 millimeter dish. Starting the following day, the cells were pretreated for 2 days with β-carotene at 1.5 μM, a typical concentration in human plasma after moderate dietary supplementation)
# β-carotene-containing medium was prepared as follows. Fresh all-E-β-carotene (DSM Nutritional Products, Kaiseraugst, Switzerland) stock solution in THF (containing 0.025% BHT; Fluka Chemie A G, Switzerland) was diluted 1:2 with ethanol and added to cell culture medium to a final concentration of 1.5 μM β-carotene. The solvent concentration in the medium was 0.5% for all treatments. β-carotene-containing medium was prepared fresh for the daily medium changes.
# On day 3 of the experiment, the cells were irradiated with a Hönle sun lamp Sol 500 (270 kJ/m^2; Dr. Hönle, Germany).
# Five independent, factorially designed cell irradiation experiments were analyzed by microarray hybridization. For each experiment, one chip was hybridized per treatment condition. GeneChip® analysis was done as described in [132], which is incorporated by reference, as if recited in full herein. Gene regulation by β-carotene and/or UVA was calculated relative to placebo.
# Changes in gene expression were included in further analysis only if the change factor was […], and if unpaired t-tests yielded p values≦0.05. Upregulations by a […] are labeled bold, downregulations by a change factor of […] are labeled bold italics. (Table 1) To identify the pathways affected by the treatments functional information on the genes was retrieved from public literature databases.
structure (smiles),measurement,setting,value
"CC1=C(/C=C/C(C)=C/C=C/C(C)=C/C=C/C=C(C)/C=C/C=C(C)/C=C/C2=C(C)CCCC2(C)C)C(C)(C)CCC1 [β-carotene, All-E-β-carotene]",number of genes regulated,co-treatment with UVA radiation and β-carotene,1142 genes
same,number of UVA-regulated genes with UVA effect enhanced,of 568 UVA-regulated genes,180 genes
same,number of UVA-regulated genes with UVA effect reduced,of 568 UVA-regulated genes,143 genes
same,number of UVA-regulated genes with no effect,of 568 UVA-regulated genes,245 genes
same,number of genes regulated,β-carotene 1.5 μM alone,381 genes
